{"source": "patent US20030171424A1", "about": "“Intravenous formulation of artelinic acid for treatment of severe and complicated malaria” (priority 2002, published 2003)", "origin": "cited, not measured here", "details": "cited from earlier work", "note": "At least one structure is not confirmed: it was looked up by name or label, or the drawing left a doubt."}
{"smiles": "C[C@H]1[C@@H](OCc2ccc(C(=O)[O-])cc2)O[C@@H]2O[C@]3(C)CC[C@H]4[C@H](C)CC[C@@H]1[C@@]24OO3.[Na+]", "note": "[Na-AL, Sodium artelinate]", "values": [{"measurement": "stability in aqueous solution", "value": "very stable"}]}
